Source: PubChem BioAssay AID290 (DTP/NCI, 2004)
The list is a part of this screen's results and no random one: it is rich in T/C values a quarter to a half above the control, in often repeated tests (any T/C) and in doses without a T/C. Other doses and runs of a compound stand elsewhere. T/C: endpoint of the treated group in % of that of the vehicle group. Schedules are NCI's codes, read here as Q, the interval in days (D) or hours (H), X, the number of doses. Some T/C values are followed by the survivors on the day toxicity was checked, most often the fifth; where none is given, no animal had died by that day. Some entries were tested several times; the values are given in rising order. Some entries give survivors of the animals treated and no T/C: the source holds a T/C of zero for them, seemingly a mark for toxic or unscored doses. Some survivor counts are full or nearly so, which does not show that the dose was tolerated: survival well below the control is almost never listed, so the zero probably covers shortened survival too. Counts of survivors are from the toxicity check (mostly the fifth day) where no day follows; animals may have died later. Additions like (4×) stand for listed records that agree. Where survival is the endpoint, this PubChem deposit counts one and a half times the control or more as active, and values a quarter to a half above the control carry no call in these data; other NCI protocols may use other cut-offs. *1 amine or outer side, *2 acyl side, *3 side chain or, on linkers, in order; H or OH if unused. Where a SMILES comes first, the peptide text is derived from it. Bridges are numbered along the chain shown (N, C = ends). Roman numbers before positions name the chains, in order. [ ]: non-standard residue; d: D form. Actinocin(9to1) = Cc1c2oc3c(C)ccc(C(=O)[*:1])c3nc-2c(C(=O)[*:2])c(N)c1=O; aThr = C[C@H](O)[C@H](N)C(=O)O; NMeV = CN[C@H](C(=O)O)C(C)C; Sar = CNCC(=O)O

System: mice, P1798 lymphosarcoma sc, survival or tumor weight T/C
Experiment: NCI In Vivo Anticancer Drug Screen. Data for tumor model P1798 Lymphosarcoma (subcutaneous) in unknown mice
Experimental: The antitumor activity of compounds was measured in mice bearing transplantable tumors. Survival or tumor size were measured and the results are expressed as the measurement made in the treated group (T) divided by the measurement made in the vehicle treated control group (C). The tumor model used in this assay is P1798 Lymphosarcoma (subcutaneous) in unknown mice

[1] = T/C endpoint: median survival time, dose: 18.75 mg/kg/injection, schedule: Q01DX029 (ip), vehicle: saline, higher T/C = longer survival
[2] = T/C endpoint: median survival time, dose: 37.5 mg/kg/injection, schedule: Q01DX029 (ip), vehicle: saline, higher T/C = longer survival
[3] = T/C endpoint: median survival time, dose: 75.0 mg/kg/injection, schedule: Q01DX029 (ip), vehicle: saline, higher T/C = longer survival
[4] = T/C endpoint: median survival time, dose: 150.0 mg/kg/injection, schedule: Q01DX010 (ip), vehicle: saline, higher T/C = longer survival
[5] = T/C endpoint: median survival time, dose: 300.0 mg/kg/injection, schedule: Q01DX010 (ip), vehicle: saline, higher T/C = longer survival
[6] = T/C endpoint: median survival time, dose: 600.0 mg/kg/injection, schedule: Q01DX010 (ip), vehicle: saline, higher T/C = longer survival

C[C@]12C=CC(=O)C=C1CC[C@@H]1[C@@H]2C(=O)C[C@@]2(C)[C@H]1CC[C@]2(O)C(=O)CO
survivor count (T/C endpoint: mean tumor weight, dose: 10.0 mg/kg/injection, schedule: Q01DX010 (sc), vehicle: steroid suspending solution, higher T/C = larger tumour): 5 of 10 | T/C (T/C endpoint: mean tumor weight, dose: 12.5 mg/kg/injection, schedule: Q01DX010 (sc), vehicle: steroid suspending solution, evaluated on day 14, higher T/C = larger tumour): 27, 56, 57 [8 of 10 alive], 64, 87 % of control | T/C (T/C endpoint: mean tumor weight, dose: 12.5 mg/kg/injection, schedule: Q01DX010 (sc), vehicle: steroid suspending solution, evaluated on day 20, higher T/C = larger tumour): 54 % of control [8 of 10 alive] | T/C (T/C endpoint: mean tumor weight, dose: 25.0 mg/kg/injection, schedule: Q01DX010 (sc), vehicle: steroid suspending solution, evaluated on day 14, higher T/C = larger tumour): 22 [9 of 10 alive], 32 [9 of 10 alive], 36 [9 of 10 alive], 42, 54 % of control | T/C (T/C endpoint: mean tumor weight, dose: 25.0 mg/kg/injection, schedule: Q01DX010 (sc), vehicle: steroid suspending solution, evaluated on day 20, higher T/C = larger tumour): 15 % of control [9 of 10 alive] | survivor count (T/C endpoint: mean tumor weight, dose: 25.0 mg/kg/injection, schedule: Q01DX010 (sc), vehicle: steroid suspending solution, higher T/C = larger tumour): 2 of 10 | T/C (T/C endpoint: mean tumor weight, dose: 50.0 mg/kg/injection, schedule: Q01DX010 (sc), vehicle: steroid suspending solution, evaluated on day 14, higher T/C = larger tumour): 1 [8 of 10 alive], 1 [9 of 10 alive], 21 [7 of 10 alive], 28 [9 of 10 alive], 58 % of control [9 of 10 alive] | survivor count (T/C endpoint: mean tumor weight, dose: 50.0 mg/kg/injection, schedule: Q01DX010 (sc), vehicle: steroid suspending solution, higher T/C = larger tumour): 3 of 10 | T/C (T/C endpoint: mean tumor weight, dose: 80.0 mg/kg/injection, schedule: Q01DX010 (sc), vehicle: water, run until all animals had died, higher T/C = larger tumour): 130 % of control | survivor count (T/C endpoint: mean tumor weight, dose: 100.0 mg/kg/injection, schedule: Q01DX010 (sc), vehicle: steroid suspending solution, higher T/C = larger tumour): 0 of 10 and 2 of 10 | survivor count (T/C endpoint: median survival time, dose: 2.34 mg/kg/injection, schedule: Q01DX029 (ip), vehicle: saline, higher T/C = longer survival): 10 of 10 | T/C (T/C endpoint: median survival time, dose: 4.67 mg/kg/injection, schedule: Q01DX029 (ip), vehicle: saline, evaluated on day 5, higher T/C = longer survival): 92 and 97 % of control | T/C (T/C endpoint: median survival time, dose: 4.67 mg/kg/injection, schedule: Q01DX029 (ip), vehicle: saline, evaluated on day 53, higher T/C = longer survival): 97 % of control | T/C (T/C endpoint: median survival time, dose: 4.67 mg/kg/injection, schedule: Q01DX029 (ip), vehicle: saline, evaluated on day 58, higher T/C = longer survival): 92 % of control | T/C (T/C endpoint: median survival time, dose: 9.35 mg/kg/injection, schedule: Q01DX010 (ip), vehicle: saline, evaluated on day 5, higher T/C = longer survival): 88, 94, 101 % of control | T/C (T/C endpoint: median survival time, dose: 9.35 mg/kg/injection, schedule: Q01DX010 (ip), vehicle: saline, evaluated on day 51, higher T/C = longer survival): 94 % of control | T/C (T/C endpoint: median survival time, dose: 9.35 mg/kg/injection, schedule: Q01DX010 (ip), vehicle: saline, evaluated on day 53, higher T/C = longer survival): 88 % of control | T/C (T/C endpoint: median survival time, dose: 9.35 mg/kg/injection, schedule: Q01DX010 (ip), vehicle: saline, evaluated on day 58, higher T/C = longer survival): 101 % of control | T/C (T/C endpoint: median survival time, dose: 18.7 mg/kg/injection, schedule: Q01DX010 (ip), vehicle: saline, evaluated on day 5, higher T/C = longer survival): 100, 106, 110 % of control | T/C (T/C endpoint: median survival time, dose: 18.7 mg/kg/injection, schedule: Q01DX010 (ip), vehicle: saline, evaluated on day 51, higher T/C = longer survival): 110 % of control | T/C (T/C endpoint: median survival time, dose: 18.7 mg/kg/injection, schedule: Q01DX010 (ip), vehicle: saline, evaluated on day 53, higher T/C = longer survival): 100 % of control | T/C (T/C endpoint: median survival time, dose: 18.7 mg/kg/injection, schedule: Q01DX010 (ip), vehicle: saline, evaluated on day 58, higher T/C = longer survival): 106 % of control | survivor count (T/C endpoint: median survival time, dose: 18.75 mg/kg/injection, schedule: Q01DX010 (ip), vehicle: saline, higher T/C = longer survival): 10 of 10 | T/C [1]: 70 and 78 % of control | survivor count [1]: 10 of 10 (2×) | T/C (T/C endpoint: median survival time, dose: 37.5 mg/kg/injection, schedule: Q01DX010 (ip), vehicle: saline, evaluated on day 5, higher T/C = longer survival): 85, 110, 115, 119, 128, 132, 136 % of control | T/C (T/C endpoint: median survival time, dose: 37.5 mg/kg/injection, schedule: Q01DX010 (ip), vehicle: saline, evaluated on day 51, higher T/C = longer survival): 110 and 132 % of control | T/C (T/C endpoint: median survival time, dose: 37.5 mg/kg/injection, schedule: Q01DX010 (ip), vehicle: saline, evaluated on day 58, higher T/C = longer survival): 115 % of control | T/C (T/C endpoint: median survival time, dose: 37.5 mg/kg/injection, schedule: Q01DX010 (ip), vehicle: saline, evaluated on day 60, higher T/C = longer survival): 128 and 130 % of control | T/C (T/C endpoint: median survival time, dose: 37.5 mg/kg/injection, schedule: Q01DX010 (ip), vehicle: saline, evaluated on day 62, higher T/C = longer survival): 136 % of control | survivor count (T/C endpoint: median survival time, dose: 37.5 mg/kg/injection, schedule: Q01DX010 (ip), vehicle: saline, higher T/C = longer survival): 10 of 10 (2×) | T/C (T/C endpoint: median survival time, dose: 37.5 mg/kg/injection, schedule: Q01DX010 (sc), vehicle: saline, evaluated on day 5, higher T/C = longer survival): 138 % of control | T/C (T/C endpoint: median survival time, dose: 37.5 mg/kg/injection, schedule: Q01DX010 (sc), vehicle: saline, evaluated on day 47, higher T/C = longer survival): 138 % of control | survivor count (T/C endpoint: median survival time, dose: 37.5 mg/kg/injection, schedule: Q01DX025 (ip), vehicle: saline, higher T/C = longer survival): 10 of 10 | T/C [2]: 37 and 63 % of control | survivor count [2]: 10 of 10 (2×) | T/C (T/C endpoint: median survival time, dose: 75.0 mg/kg/injection, schedule: Q01DX010 (ip), vehicle: saline, evaluated on day 5, higher T/C = longer survival): 50, 61, 108, 116, 121, 148, 149 % of control | T/C (T/C endpoint: median survival time, dose: 75.0 mg/kg/injection, schedule: Q01DX010 (ip), vehicle: saline, evaluated on day 51, higher T/C = longer survival): 121 and 149 % of control | T/C (T/C endpoint: median survival time, dose: 75.0 mg/kg/injection, schedule: Q01DX010 (ip), vehicle: saline, evaluated on day 60, higher T/C = longer survival): 108 % of control | T/C (T/C endpoint: median survival time, dose: 75.0 mg/kg/injection, schedule: Q01DX010 (ip), vehicle: saline, evaluated on day 62, higher T/C = longer survival): 148 % of control | survivor count (T/C endpoint: median survival time, dose: 75.0 mg/kg/injection, schedule: Q01DX010 (ip), vehicle: saline, higher T/C = longer survival): 9 of 10 (2×) and 10 of 10 (2×) | survivor count (T/C endpoint: median survival time, dose: 75.0 mg/kg/injection, schedule: Q01DX025 (ip), vehicle: saline, higher T/C = longer survival): 10 of 10 | T/C [3]: 40 and 50 % of control | survivor count [3]: 10 of 10 (2×) | T/C [4]: 41, 47 (2×), 49, 55 (2×), 79 % of control | survivor count [4]: 9 of 10 (2×), 10 of 10 (5×), 8 of 8 | survivor count (T/C endpoint: median survival time, dose: 150.0 mg/kg/injection, schedule: Q01DX010 (sc), vehicle: saline, higher T/C = longer survival): 10 of 10 | survivor count (T/C endpoint: median survival time, dose: 150.0 mg/kg/injection, schedule: Q01DX025 (ip), vehicle: saline, higher T/C = longer survival): 10 of 10 | survivor count (T/C endpoint: median survival time, dose: 150.0 mg/kg/injection, schedule: Q01DX029 (ip), vehicle: saline, higher T/C = longer survival): 9 of 10 | T/C [5]: 28, 33, 39 % of control | survivor count [5]: 10 of 10 (2×) and 8 of 8 | survivor count (T/C endpoint: median survival time, dose: 300.0 mg/kg/injection, schedule: Q01DX010 (sc), vehicle: saline, higher T/C = longer survival): 10 of 10 | T/C [6]: 27, 31, 35 % of control | survivor count [6]: 10 of 10 (2×) and 8 of 8 | survivor count (T/C endpoint: median survival time, dose: 600.0 mg/kg/injection, schedule: Q01DX010 (sc), vehicle: saline, higher T/C = longer survival): 10 of 10

Nc1nc(F)nc2c1ncn2C1OC(CO)C(O)C1O (stereo unspecified)
survivor count (T/C endpoint: mean tumor weight, dose: 6.0 mg/kg/injection, schedule: Q01DX011 (ip), vehicle: saline, higher T/C = larger tumour): 0 of 10

CSc1ncnc2nc[nH]c12
survivor count (T/C endpoint: mean tumor weight, dose: 200.0 mg/kg/injection, schedule: Q01DX010 (ip), vehicle: carboxymethylcellulose (CMC), higher T/C = larger tumour): 2 of 10

Nc1ncnc2c1ncn2C1OC(CO)CC1O (stereo unspecified)
survivor count (T/C endpoint: mean tumor weight, dose: 150.0 mg/kg/injection, schedule: Q01DX010 (ip), vehicle: carboxymethylcellulose (CMC), higher T/C = larger tumour): 4 of 10 | survivor count (T/C endpoint: mean tumor weight, dose: 300.0 mg/kg/injection, schedule: Q01DX010 (ip), vehicle: carboxymethylcellulose (CMC), higher T/C = larger tumour): 0 of 10

Cc1c2oc3c(C)ccc(C(=O)N[C@@H]4C(=O)N[C@H](C(C)C)C(=O)N5CCC[C@H]5C(=O)N(C)CC(=O)N(C)[C@@H](C(C)C)C(=O)O[C@H]4C)c3nc-2c(C(=O)N[C@@H]2C(=O)N[C@H](C(C)C)C(=O)N3CCC[C@H]3C(=O)N(C)CC(=O)N(C)[C@@H](C(C)C)C(=O)O[C@H]2C)c(N)c1=O (I: [aThr][dV]P[Sar][NMeV] / II: [aThr][dV]P[Sar][NMeV]; ester I:1-I:C, II:1-II:C; linker I:N-II:N via Actinocin(9to1))
survivor count (T/C endpoint: mean tumor weight, dose: 5.0 micrograms/kg/injection, schedule: Q01DX010 (ip), vehicle: saline, higher T/C = larger tumour): 4 of 10 | survivor count (T/C endpoint: mean tumor weight, dose: 50.0 micrograms/kg/injection, schedule: Q01DX010 (ip), vehicle: saline, higher T/C = larger tumour): 0 of 10
